Results on 2 sequences are retold here after doi:10.1101/2022.05.17.492379.

By UniProt entry, the sequences of proteins in these tests, tags left out. Where a name states a change or a piece, a line headed by the entry shows the natural chain unless it says otherwise.
UniProt Q61539: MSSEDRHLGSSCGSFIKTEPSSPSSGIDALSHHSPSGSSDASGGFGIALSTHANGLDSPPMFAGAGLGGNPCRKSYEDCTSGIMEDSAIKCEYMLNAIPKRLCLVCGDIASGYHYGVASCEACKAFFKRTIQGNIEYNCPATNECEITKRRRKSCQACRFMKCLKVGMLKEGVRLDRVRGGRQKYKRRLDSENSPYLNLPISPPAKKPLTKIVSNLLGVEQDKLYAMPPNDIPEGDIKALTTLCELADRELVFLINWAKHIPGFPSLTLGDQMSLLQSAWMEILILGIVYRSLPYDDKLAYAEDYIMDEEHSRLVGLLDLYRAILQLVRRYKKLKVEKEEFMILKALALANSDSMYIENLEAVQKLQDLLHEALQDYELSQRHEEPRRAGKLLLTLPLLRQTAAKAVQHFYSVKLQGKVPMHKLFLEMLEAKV
UniProt P45448: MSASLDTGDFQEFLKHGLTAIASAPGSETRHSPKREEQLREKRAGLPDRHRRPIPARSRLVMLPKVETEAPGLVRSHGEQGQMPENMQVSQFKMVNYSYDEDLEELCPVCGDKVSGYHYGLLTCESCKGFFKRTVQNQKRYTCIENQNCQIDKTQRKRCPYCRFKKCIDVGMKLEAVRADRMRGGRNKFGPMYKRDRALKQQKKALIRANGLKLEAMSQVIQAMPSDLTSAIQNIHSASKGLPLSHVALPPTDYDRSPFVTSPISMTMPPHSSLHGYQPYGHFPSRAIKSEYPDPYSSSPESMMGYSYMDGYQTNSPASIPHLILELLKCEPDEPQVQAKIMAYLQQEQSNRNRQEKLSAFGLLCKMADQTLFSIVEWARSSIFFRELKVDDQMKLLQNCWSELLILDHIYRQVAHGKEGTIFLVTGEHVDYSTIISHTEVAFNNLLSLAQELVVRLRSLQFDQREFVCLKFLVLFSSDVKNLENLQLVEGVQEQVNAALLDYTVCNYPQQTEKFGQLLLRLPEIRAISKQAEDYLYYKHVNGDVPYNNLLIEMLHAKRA

Data set [1] addresses Esrrb (Mus musculus) (UniProt Q61539). Description: EMSA. To be noted: competitor DNA present; residues 1-433.
Data set [2] addresses Nr5a2 (Mus musculus) (UniProt P45448). Description: EMSA. As to conditions: competitor DNA present; residues 1-560.

Construct, isoform or probe ends are uncertain for at least one entry. For some of these results: The comparison behind a weaker result is the experiment's own reference, which may not be listed here. At least one verdict rests on a figure or table, not on a statement of the authors.

“GAGAGAGTCAAGGCCATGGCTCACT (double strand) [Nr5a2 motif DNA]”: the binding result in data set [1] was “binds more weakly”; in data set [2], “binds”.
Taken in the same sequence, the figures for “GAGAGAGTCAAGGTCATGGCTCACT (double strand) [Esrrb motif DNA]” were “binds” and “binds”.
